Consider one molecule from publication PMC12246756 (Frontiers in Pharmacology, 2025).

Common to all, as to type: cell-based
For assay [1], the system named is A549. The experiment in a line: cells. Particulars: Homo sapiens, A549, 48 h, read-out: IC50 (µM) A549, MTT. The protocol:
(§1) Cell viability was assessed using the MTT assay, as outlined in previous studies ([Majeed et al., 2014]; [Amin et al., 2025]). Briefly, A549, A375, MCF-7 and MDA-MB231 cells (10 × 10^3 cells/well) were seeded in 96-well plates and incubated for 24 h at 37°C in a 5% CO2 atmosphere. After this incubation, the cells were treated with test compounds for another 48 h. At 44th hour of treatment, the cells were incubated with MTT (2.5 mg/mL) for additional 4 h. At 48th hour, DMSO was added (100 µL/well), to dissolve formazan crystals. Absorbance was measured at 570 nm. Cell viability was calculated relative to untreated controls. IC50 values were determined from independent triplicate experiments using GraphPad™ Prism 8.0 software. […]

The subject of assay [2] is A375. Put plainly: cells. Conditions: Homo sapiens, A-375, 48 h, read-out: IC50 (µM) A375, MTT. As for the experimental part:
as §1

The test system of assay [3] is A375 (melanoma). The experiment in a line: Sulforhodamine B (SRB) assay, A375. Conditions: Homo sapiens, A-375, 48 h, read-out: IC50 (µM) A375. An excerpt:
(§2) Roswell Park Memorial Institute (RPMI)-1640 medium, Dulbecco’s modified eagle medium high glucose (DMEM; Gibco) supplemented with 10% Fetal Bovine Serum (FBS; Gibco, and 1% antibiotic-antimycotic (Gibco; Anti-Anti 100x), phosphate-buffered saline (PBS; Gibco), 0.25% trypsin (Gibco), sodium pyruvate (Sigma-Aldrich), HEPES (Gibco). Human cancer cell lines A549 (lung carcinoma), MCF-7 (breast carcinoma), MDAMB-231 (breast carcinoma), A375 (melanoma), and normal human embryonic kidney cells (HEK-293) were taken from Dr. Sheikh Tasduq Abdullah and Dr. Boobalan Gopu (CSIR-IIIM).
(§3) Their activity was tested against human cancer cell lines A549 (lung carcinoma), MCF-7 (breast carcinoma), MDAMB-231 (breast carcinoma), and A375 (melanoma). The selectivity index (SI) was calculated against normal human embryonic kidney cells (HEK-293) to determine cytotoxic selectivity. The cells (7 × 10^3 cells/well) were seeded on 96 well plates, followed by overnight incubation. […] The dissolved dye indicating growth inhibition was quantified by calculating optical density at 540 nm via microplate reader (Tecan infinite M200PRO, Switzerland). The IC50 values were calculated using GraphPad Prism Software Version 5.0. […] The selectivity index is calculated by using the formula. […]
In general terms: The SRB assay estimates cell density from bound dye.

The test system of assay [4] is A549 (lung carcinoma). The experiment in a line: Sulforhodamine B (SRB) assay, A549. Particulars: Homo sapiens, A549, 48 h, read-out: IC50 (µM) A549.
Excerpt: as §2, §3

In assay [5] the test system is MCF-7 (breast carcinoma). Put plainly: Sulforhodamine B (SRB) assay, MCF-7. Particulars: Homo sapiens, MCF7, 48 h, read-out: IC50 (µM) MCF-7.
Excerpt: as §2, §3

Assay [6] relates to MDA-MB 231 (breast carcinoma). The experiment in a line: Sulforhodamine B (SRB) assay, MDA-MB 231. Conditions: Homo sapiens, MDA-MB-231, 48 h, read-out: IC50 (µM) MDA-MB 231.
Excerpt: as §2, §3

In assay [7] the test system is normal human embryonic kidney cells (HEK-293). The experiment in a line: Sulforhodamine B (SRB) assay, normal cells HEK-293. Particulars: HEK293, 48 h, normal cell line, mean ± SD (n = 3).
Excerpt: as §2
as §3, with “Sulforhodamine B (SRB), a semi-automated colorimetric assay, was used to evaluate the anti-cancerous properties of indicated colchicine derivatives. Their” for “Their”, “selectivity.” for “selectivity. The cells (7 × 10^3 cells/well) were seeded on 96 well plates, followed by overnight incubation.”

Turning to `COc1cc2c(c(OC)c1OC)-c1ccc(OC)c(=O)cc1[C@@H](NC(C)=O)CC2` [Colchicine, reference compound], the IC50 in assay [1] turned out to be 0.21 ± 0.02 µM; in assay [2], 0.022 ± 0.008 µM; in assay [3], 0.076 ± 0.01 µM; in assay [4], 0.174 ± 0.028 µM; in assay [5], 4.44 ± 0.28 µM; in assay [6], 4.83 ± 0.31 µM. Also, 0.061 ± 0.002 µM corresponded to half-maximal inhibition in assay [7] (IC50).

The IC50 is the concentration needed to halve the response being measured.
